Measured values from PubChem BioAssay AID2390 (National Center for Advancing Translational Sciences (NCATS), 2010).
The shares of active, inactive and inconclusive entries below differ from those in the screen. A potency beside an inconclusive call is a rough fit, not a confirmed value. Calls of active or inactive are those of the source. Calls follow the shape of the dose curve; as a rule, active = well fitted inhibition curve with a large enough effect; inconclusive = small, poorly fitted or top-dose-only effect; inactive = no such curve, though single readings can be large or run the other way.

The chains behind the UniProt entries cited, without tags or fusion partners. Where a name states a change or a piece, a line headed by the entry shows the natural chain unless it says otherwise.
UniProt O14924: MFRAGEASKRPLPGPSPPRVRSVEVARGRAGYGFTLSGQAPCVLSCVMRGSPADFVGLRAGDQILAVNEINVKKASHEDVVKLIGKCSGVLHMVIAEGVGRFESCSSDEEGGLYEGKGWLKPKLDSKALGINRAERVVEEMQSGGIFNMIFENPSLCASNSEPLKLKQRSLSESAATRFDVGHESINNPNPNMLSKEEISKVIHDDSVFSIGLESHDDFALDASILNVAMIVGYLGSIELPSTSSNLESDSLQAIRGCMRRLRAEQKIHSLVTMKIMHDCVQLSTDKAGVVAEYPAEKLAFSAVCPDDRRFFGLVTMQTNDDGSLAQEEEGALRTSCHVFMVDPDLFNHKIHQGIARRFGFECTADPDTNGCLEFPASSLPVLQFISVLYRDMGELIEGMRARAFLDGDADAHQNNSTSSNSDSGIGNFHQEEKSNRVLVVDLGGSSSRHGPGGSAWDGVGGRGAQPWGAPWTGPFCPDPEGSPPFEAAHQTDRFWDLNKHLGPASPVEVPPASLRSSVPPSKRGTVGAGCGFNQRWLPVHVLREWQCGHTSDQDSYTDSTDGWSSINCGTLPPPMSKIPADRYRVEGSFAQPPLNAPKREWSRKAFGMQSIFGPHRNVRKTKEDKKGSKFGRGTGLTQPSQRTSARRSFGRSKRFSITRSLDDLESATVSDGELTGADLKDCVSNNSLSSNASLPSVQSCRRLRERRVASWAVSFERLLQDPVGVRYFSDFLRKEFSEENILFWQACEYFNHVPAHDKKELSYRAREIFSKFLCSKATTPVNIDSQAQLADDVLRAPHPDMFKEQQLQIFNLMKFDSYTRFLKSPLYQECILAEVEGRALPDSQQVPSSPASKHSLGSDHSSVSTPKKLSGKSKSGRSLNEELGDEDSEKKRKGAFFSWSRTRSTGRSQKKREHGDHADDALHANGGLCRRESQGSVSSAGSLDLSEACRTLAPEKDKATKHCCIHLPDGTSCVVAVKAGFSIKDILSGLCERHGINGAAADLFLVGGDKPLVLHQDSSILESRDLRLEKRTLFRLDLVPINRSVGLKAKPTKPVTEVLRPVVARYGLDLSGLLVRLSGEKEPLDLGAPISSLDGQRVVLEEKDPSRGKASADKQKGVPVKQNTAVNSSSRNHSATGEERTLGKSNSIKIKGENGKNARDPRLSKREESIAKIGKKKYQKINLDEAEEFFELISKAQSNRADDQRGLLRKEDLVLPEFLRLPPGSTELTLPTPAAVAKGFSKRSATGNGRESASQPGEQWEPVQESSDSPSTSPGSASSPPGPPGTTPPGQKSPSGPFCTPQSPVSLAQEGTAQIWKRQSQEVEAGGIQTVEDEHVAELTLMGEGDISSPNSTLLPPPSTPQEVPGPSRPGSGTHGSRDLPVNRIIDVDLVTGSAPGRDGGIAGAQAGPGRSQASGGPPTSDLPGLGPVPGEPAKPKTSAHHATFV

These compounds were tested against Regulator of G-protein signaling 12 (Homo sapiens) (UniProt O14924) (assay: Confirmation qHTS Assay for Inhibitors of RGS12 GoLoco Motif Activity (Red Fluorophore)). Settings: Gai1/rhodamine-RGS12 GoLoco peptide fluorescence polarization; series mostly up to 57.1 µM.
Description: G-protein-coupled receptors (GPCRs) are major targets for drug discovery. The regulator of G-protein signaling (RGS)-protein family has important roles in GPCR signal transduction. RGS proteins contain a conserved RGS-box, which is often accompanied by other signaling regulatory elements. RGS proteins accelerate the deactivation of G proteins to reduce GPCR signaling; however, some also have an effector function and transmit signals. Combining GPCR agonists with RGS inhibitors should potentiate responses, and could markedly increase the agonist's regional specificity. The diversity of RGS proteins with highly localized and dynamically regulated distributions in brain makes them attractive targets for pharmacotherapy of central nervous system disorders. […] A complex of Gai1 and fluorescently labeled G-alpha-binding peptide (the "GoLoco motif") derived from RGS12 is incubated with library members. Inhibitors of the binding are detected by a decrease in the fluorescence polarization (FP) of the fluorophore. Protein was supplied by Prof. David Siderovski, University of North Carolina at Chapel Hill. This BioAssay is a confirmatory run of primary qHTS protocol (AID: 880). See following reference for more details: Kimple AJ, et al. Comb Chem High Throughput Screen. 2008 Jun;11(5):396-409. Assay Submitter: Siderovski, David P, University of North Carolina at Chapel Hill Screening Center PI: Austin, C.P. Screening Center: NIH Chemical Genomics Center [NCGC] NIH Grant: NS053754-01
Reagents/Controls: Assay Buffer: 10 mM Tris-HCl, 150 mM NaCl, 0.1 mM GDP (prepared fresh), and 0.05% NP40 at pH 7.5. […] 15 nM Rhodamine labeled peptide/25 nM protein in columns 1, 2, 5 - 48. Titration of unlabeled peptide control ([H][…][NH2], custom synthesized and HPLC-purified by Tufts University Core Facility) from 20 mM, then 1:2 dilution, 16-point in duplicate, pin-transferred to column 2, rows 1 to 32. Column 1 is neutral. Rhodamine-labeled peptide (Rhodamine-[…]-NH2) was custom-synthesized and HPLC-purified by Invitrogen (Carlsbad, CA). Assay Steps. Four uL of reagents were dispensed to 1536-well Greiner black solid-bottom plates. Compounds and controls (23 nL) were transferred via Kalypsys PinTool. The plates were incubated for 10 min at room temperature, and then read on ViewLux (Perkin-Elmer) High-throughput CCD imager using BODIPY for the rhodamine-labeled decapeptide probe. During dispense, reagent bottles were kept submerged into 4 deg C water bath and all liquid lines were covered with aluminum foil to minimize probe and protein degradation. All screening operations were performed on a Kalypsys robotic system (Kalypsys, Inc., San Diego, CA) containing one RX-130 and two RX-90 anthropomorphic robotic arms.

Compound	Potency	activity, negative = inhibition
COc1ccc(CSCC(=O)N/N=C/c2ccc(OCC(=O)N3CCCCC3)cc2)cc1	inconclusive: 11.2 µM [inhibitor, full curve]	–
Nc1cc(N)nc(SCC(=O)Nc2ccc(Br)cc2Cl)n1	inconclusive: 7.94 µM [inhibitor, full curve]	–
CCOc1ccc(N(CC(=O)N/N=C/c2ccc(OC(C)C)cc2)S(C)(=O)=O)cc1	–	inactive: 5.39% [at 0.0121 µM]
CCOC(=O)c1ccc(NC(=O)CSc2nccn2C)cc1	inactive	–
COc1ccccc1N1C(=O)C=C(Sc2nc(C)cc(C)n2)C1=O	inconclusive: 2.51 µM [inhibitor, full curve]	–
O=C(O)c1ccc(COc2ccc(/C=N/NC(=O)c3cccs3)cc2)cc1	inconclusive: 14.1 µM [inhibitor, full curve]	–
CCC(=O)Nc1ccc(-c2nnc(SCC(=O)N3CCCCC3)n2C)cc1	inactive	–
CC1c2ccccc2CN1CC1=NCCN1 (stereo not drawn)	inconclusive: 44.7 µM [inhibitor, partial curve, poor fit]	–
O=C(COc1ccc(Cl)cc1)N1CCN(Cc2ccc3c(c2)OCO3)CC1	–	inactive: 8.97% [at 0.0121 µM]
Cc1ccccc1OCc1nnc(SCC(=O)Nc2ccc3c(c2)oc2ccccc23)n1C	inactive	–
Cc1[nH]c2ccccc2c1C(=O)CN1CCN(C2CCCCC2)CC1	inconclusive: 15.8 µM [inhibitor, partial curve]	–
CCn1c(SCC(=O)N2CCN(c3cccc(Cl)c3)CC2)nc2ccccc2c1=O	inactive	–
C=CCc1cc(/C=N\NC(=O)CSc2nnc(CCCc3ccc(OC)c(C)c3)o2)cc(OC)c1O	inconclusive: 7.94 µM [inhibitor, full curve]	–
CN1C(CC(=O)c2ccccc2)CCCC1CC(O)c1ccccc1 (stereo not drawn)	inactive	–
O=C(CSCc1ccccc1)N/N=C/c1ccc(OCC(=O)N2CCCCC2)cc1	inactive	–
COC(=O)c1ccc(NC(=O)CSc2ccccn2)cc1	inconclusive: 20 µM [inhibitor, partial curve]	–
CCCCn1c(=O)[nH]c2nc3cc(N)ccc3nc2c1=O	active: 8.91 µM	–

Among those listed so far, 2 contain an NH in an aromatic ring.
Compound	Potency	activity, negative = inhibition
Cc1[nH]c2ccccc2c1C(=O)CN1CCN(C2CCCCC2)CC1	inconclusive: 15.8 µM [inhibitor, partial curve]	–
CCCCn1c(=O)[nH]c2nc3cc(N)ccc3nc2c1=O	active: 8.91 µM	–

(more compounds)

Compound	Potency	activity, negative = inhibition
O=C1c2cccc3c([N+](=O)[O-])ccc(c23)C(=O)N1c1ccccn1	inactive	–
CO/N=C(/C(=O)N[C@H]1C(=O)N2C(C(=O)O)=C(COC(C)=O)CSC12)c1csc(N)n1 (stereo partly drawn)	inactive	–
Cc1cc(C)c2c(=O)n(CC(=O)Nc3ccc(Cl)cc3)sc2n1	inconclusive: 31.6 µM [inhibitor, partial curve, poor fit]	–
CCOc1ccc(NC(=O)Cn2sc3nc(C)cc(C)c3c2=O)cc1	inconclusive: 0.562 µM [inhibitor, full curve]	–
NC(=O)NC1NC(=O)NC1=O (stereo not drawn)	inconclusive: 12.6 µM [inhibitor, partial curve, poor fit]	–
O=C1NCc2c1c1c3ccccc3[nH]c1c1[nH]c3ccccc3c21	inactive	–
CCOC(=O)c1ccc(NC(=O)CSc2ncccn2)cc1	inconclusive: 12.6 µM [inhibitor, full curve]	–
Cc1cc2nc3c(=O)n(C4CCCCC4)c(=O)[nH]c3nc2cc1N	inconclusive: 7.08 µM [inhibitor, full curve]	–
CCCCCCCC[n+]1cccc(C(=O)N2c3c(nc(N)[nH]c3=O)NC(C)C2C)c1 (stereo not drawn)	inconclusive: 10 µM [inhibitor, full curve]	–
Cc1cc2nc3c(=O)n(CCc4ccccc4)c(=O)[nH]c3nc2cc1N	inconclusive: 3.55 µM [inhibitor, full curve]	–
CCn1c(SCC(=O)N(C(C)C)C(C)C)nnc1-c1cc2ccccc2cc1O	inconclusive: 4.47 µM [inhibitor, full curve]	–
O=C(Nc1cccc(Nc2cc(Nc3cccc(C(F)(F)F)c3)ncn2)c1)C1CC1	inactive	–
CCCCCCCCCCCCCCCC[n+]1ccc(C(N)=O)cc1	inconclusive: 8.91 µM [inhibitor, full curve, poor fit]	–
CCCCNc1ccc2c3c(cccc13)C(=O)N(CCCC)C2=O	active: 14.1 µM	–
CCOC(=O)C1CCCN(C(=O)Cn2sc3nc(C)cc(C)c3c2=O)C1 (stereo not drawn)	inconclusive: 2.24 µM [inhibitor, full curve]	–
COc1cc(OC)c(C2CC(=O)N3CN(c4ccc(C)cc4)CSC3=C2C#N)cc1OC (stereo not drawn)	inconclusive: 12.6 µM [inhibitor, full curve]	–
